In PubChem BioAssay AID652054 (National Center for Advancing Translational Sciences (NCATS), 2013):
Hit rate of the full screen: of about 360,000 compounds, about 9,100 (2.5%) were called active. The inconclusive results got no clear call from the source; some entries with a clear call stand among them for comparison. Cut-off read from the data, not from the text of the source: active = max response below about -50%; inconclusive = no clear call, values can overlap the other calls; inactive = above that.

By UniProt entry, the sequences of proteins in these tests, tags left out.
UniProt P35462, whole entry, looked up: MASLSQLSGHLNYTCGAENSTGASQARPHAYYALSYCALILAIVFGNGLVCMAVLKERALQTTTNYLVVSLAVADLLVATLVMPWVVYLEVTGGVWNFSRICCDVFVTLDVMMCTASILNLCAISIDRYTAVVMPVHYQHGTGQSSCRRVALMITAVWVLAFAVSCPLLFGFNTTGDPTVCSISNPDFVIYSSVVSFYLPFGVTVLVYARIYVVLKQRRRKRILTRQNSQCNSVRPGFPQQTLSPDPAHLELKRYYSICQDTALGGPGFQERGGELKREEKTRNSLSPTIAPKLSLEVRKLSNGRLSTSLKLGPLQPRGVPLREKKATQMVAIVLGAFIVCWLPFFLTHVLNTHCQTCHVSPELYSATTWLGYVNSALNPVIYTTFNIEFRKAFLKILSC

target: D(3) dopamine receptor (Homo sapiens) (UniProt P35462); assay: qHTS of D3 Dopamine Receptor Antagonist: qHTS; settings: D3R cells, DiscoveRx beta-arrestin luminescence, antagonist mode; active compounds read low
Method in brief: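 Cells expressing the human receptor were seeded at 1500 cells/well, incubated overnight at 37 degrees C in 5% CO2, then exposed to library compounds with dopamine controls for 90 minutes at 37 degrees C before luminescent detection.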
% is set by controls: 0 for no effect and ±100 for the full control effect.

Row | SMILES | max response, negative = inhibition
1 | c1ccc(Oc2nc(N3CCOCC3)nc(N3CCOCC3)n2)cc1 | inconclusive: -40.4%
2 | Cc1[nH]nc(-c2cccnc2)c1N=NN(C)C | active: -89.5%
3 | CCc1ccc(CNCCNCC(C)O)cc1 (centres undefined) | inconclusive: -47.9%
4 | CC1CCN(c2c(NCC3CCC(C(=O)NCc4ccccc4)CC3)c(=O)c2=O)CC1 (centres undefined) | active: -61.1%
5 | Cc1cc(CNC(=O)c2cccc([N+](=O)[O-])c2C)c2ccccc2n1 | inactive: 15.9%
6 | COc1ccccc1CN1CC(C(=O)NC2(c3ccccc3)CC2)CCC1=O (centres undefined) | inconclusive: -31.6%
7 | C=CCOC(=O)CCP(=O)(CCC(=O)OCC=C)c1ccccc1 | inconclusive: -49.5%
8 | Cc1cc2oc(=O)cc(CN3CCCCC3)c2cc1Cl | inactive: 0%
9 | Cc1cccc(C(=O)Nc2ccc(C(=O)/C=C/c3cccnc3)cc2)c1 | active: -81%
10 | COc1ccc([C@H]2CC(=O)C=C(c3ccc(Cl)cc3C)C2)cc1 | inconclusive: -31.7%
11 | COC(=O)C(Cc1ccccc1)NC(=O)CNC(=O)c1ccc(Br)cc1 (centres undefined) | inconclusive: -38.2%
12 | Cc1cccc(OCC(=O)NNC(=O)CCN2CCN(c3ccccc3)CC2)c1C | active: -83%
13 | Cc1noc(C)c1S(=O)(=O)N1CCC(C(=O)NCCN2CCC(C)CC2)CC1 | inconclusive: -35%
14 | CCN(CC)CC(=O)Nc1sc2c(c1C(=O)c1ccccc1OC)CCC2 | inactive: -13.3%
15 | Cc1ccc(SC2=C(Sc3ccc(C)cc3)C(=O)c3ccccc3C2=O)cc1 | active: -114%
16 | COc1ccccc1C(=O)NCC(=O)n1nc(C)cc1C | inconclusive: -46.8%
17 | O=C(Nc1ccccc1N1CCOCC1)c1cccc2c(Br)cccc12 | inactive: 17.9%
18 | C=CCN(CC=C)S(=O)(=O)c1ncn[nH]1 | inconclusive: -31.6%
19 | Cc1cc(C)c(S(=O)(=O)c2cccc(C)c2C)c(=O)[nH]1 | inactive: 5.79%
20 | Clc1ccccc1-c1nnc2sc(C3COc4ccccc4O3)nn12 (centres undefined) | inconclusive: -34.4%
21 | COc1ccccc1C(=O)NC1CC2CCCC(C1)N2Cc1ccccc1 (centres undefined) | active: -112%
22 | Cc1ccc(CN2CCN(Cc3ccc4ncccc4c3)CC2CCO)cc1 (centres undefined) | inactive: -16%
23 | CCC(C)(C)n1nnnc1C(c1cccs1)N1CCN(c2nc3ccccc3s2)CC1 (centres undefined) | inactive: -16.1%

Row | SMILES | max response, negative = inhibition
24 | CN(C)c1ccc(C(=S)N2CCOCC2)cc1 | inconclusive: -34.5%
25 | O=C1CC2(CCCC2)CC(=O)N1CCCCN1CCN(c2ncccn2)CC1 | active: -100%
26 | Fc1ccc(C2CC(c3ccco3)=Nc3ccccc3S2)cc1 (centres undefined) | inconclusive: -40.9%
27 | COc1ccc(N2CC(C(=O)N/N=C/c3ccccc3)CC2=O)cc1 (centres undefined) | inconclusive: -39.1%
28 | COC(=O)[C@]1(Sc2ccc(C)cc2)CC(=O)N[C@@H]1c1ccco1 | active: -69.3%
29 | OCCN1CCN(CCCN2c3ccccc3CCc3ccccc32)CC1 | active: -125%
30 | CN(C)CCN(C(=O)c1ccc(S(=O)(=O)N2CCCC2)cc1)c1nc2ccc(Br)cc2s1 | inconclusive: -33.1%
31 | Cc1cc(Cl)c(S(=O)(=O)Nc2ccc(Cl)cn2)cc1OCC(N)=O | inconclusive: -40.9%
32 | Cc1ccc2nc(SCC(=O)N3CCC(Cc4ccccc4)CC3)nc(=O)n2c1 | inconclusive: -47%
33 | COc1cccc(CN2CCCN(S(=O)(=O)c3ccc(Br)cc3)CC2)c1 | active: -57.1%
34 | COCc1ccc(C(=O)N2CCCC(C(=O)c3ccc(SC)cc3)C2)s1 (centres undefined) | inactive: -13.4%
35 | CCC(C)NCCOCCOc1ccc(Br)cc1C (centres undefined) | active: -71.5%
36 | COC(=O)c1ccc(NC(=O)COc2ccc([N+](=O)[O-])cc2)cc1 | inactive: 4.72%
37 | COc1ccc(NC(=O)c2cccc(S(=O)(=O)N3CCCC3)c2)cc1OC | inconclusive: -49.1%
38 | CC1(C)C(/C=C/C=C/C=C/C=C2\N(CCCCS(=O)(=O)O)c3ccc4ccccc4c3C2(C)C)=[N+](CCCCS(=O)(=O)[O-])c2ccc3ccccc3c21 | inconclusive: -32.2%
39 | Cc1ccc(C)c(OCCOCCN2CCOCC2)c1 | active: -56%
40 | OCC1(CCOc2ccccc2)CCN(Cc2ccc(OC(F)F)cc2)CC1 | inconclusive: -33.7%
41 | CN(C1CCCCC1)S(=O)(=O)c1ccc(NC(=O)c2ccc(Br)o2)cc1 | inconclusive: -40.3%
42 | Cc1nnc(C)n1/N=C/c1c(O)ccc2ccccc12 | inactive: 15.9%
43 | O=C(CCC1CCCCC1)NCCN1C2=NC[C@H](Cc3ccc(O)cc3)N2C[C@H]1Cc1ccc(O)cc1 | inconclusive: -32.9%
44 | O=C1CC(=O)N(Cc2ccco2)C(=S)N1 | inconclusive: -33.4%
45 | Nc1nonc1-n1nnc(C(=O)N/N=C/c2c(Cl)cccc2Cl)c1CSC1=NCCS1 | active: -52.8%
46 | CCOC(=O)C1=C(CC)Nc2ccccc2N=C1NC(=O)c1oc2ccccc2c1C | inactive: 15%

Row | SMILES | max response, negative = inhibition
47 | CCN(CC)S(=O)(=O)c1ccc(NC(=O)COC(=O)CN2C(=O)c3ccccc3C2=O)cc1 | inconclusive: -31.3%
48 | COC(=O)c1ccc(Oc2ccc(S(=O)(=O)N3CCCCC3)cc2N)cc1 | inconclusive: -49.3%
49 | CC(=O)C1=C(O)C(=O)N(Cc2ccccc2)C1c1ccc(N(C)C)cc1 (centres undefined) | inconclusive: -36.5%
50 | CC(Sc1ncnc2ccccc12)C(=O)Nc1ccc2c(c1)OCO2 (centres undefined) | inactive: -15%
51 | NC(=S)NN=Cc1nccc2c(C(F)(F)C(F)(F)C(F)(F)F)cccc12 | inconclusive: -41.6%
52 | Cc1nn(Cc2c(Cl)cccc2Cl)c(Cl)c1/C=N/NC(=O)c1cccnc1 | inactive: 12.9%
53 | CCOc1ccc(S(=O)(=O)N2CCC(C(=O)N3CCOCC3)CC2)cc1C | inconclusive: -35.7%
54 | O=C(/C=C/c1ccccc1)Nc1cc(NC(=O)/C=C/c2ccccc2)cc(C(=O)O)c1 | inactive: -9.01%
55 | O=C(NC1CCCCC1)C12CC3CC(C1)CC(n1cncn1)(C3)C2 | inconclusive: -32.1%
56 | NC(=O)C1(N2CCCCC2)CCN(S(=O)(=O)c2cc(Cl)sc2Cl)CC1 | inactive: -7.12%
57 | Cc1cccc(NC(=S)NCC(c2ccccc2)N(C)C)c1 (centres undefined) | inconclusive: -44.5%
58 | COc1ccc(/C=N/NC(=O)CN(C)C(=O)OCc2ccccc2)cc1OC | inactive: -0.415%
59 | Clc1ccc(OCCCNCc2ccccc2)c(Br)c1 | active: -78.6%
60 | CC(C)(CN1CCN(c2ccccc2)CC1)NS(=O)(=O)c1ccccc1 | inconclusive: -34.4%
61 | COCCn1c(SCC(=O)NCc2ccco2)nnc1C(C)C | inconclusive: -35.2%
62 | CC1(C)Cc2noc(N)c2C(C)(C)N1O | inconclusive: -31.9%
63 | Cc1cccc2cc3c(N)c(C(=O)N4CCCc5ccccc54)sc3nc12 | inconclusive: -36.7%
64 | COc1ccc(C(=O)Nc2cc(S(=O)(=O)N3CCCCC3)ccc2OC)cc1 | inconclusive: -31.7%
65 | Clc1cccc(CNCCCSc2ncccn2)c1 | active: -52%
66 | COC(=O)CSc1nc(N)c2c3c(sc2n1)C(c1ccccc1)SC(c1ccccc1)C3 (centres undefined) | inconclusive: -37.6%
67 | Cc1cc(C)c2nc(C(F)(F)F)nc(NCCCN3CCOCC3)c2c1 | inconclusive: -42.4%
68 | CN1CCN(CCOCCOc2c(Cl)cc(Cl)cc2Cl)CC1 | inconclusive: -39.7%
69 | O=C(NC1CCCC1)C1c2ccccc2OCC(=O)N1CC(F)(F)F (centres undefined) | inconclusive: -31.8%

Row | SMILES | max response, negative = inhibition
70 | NC(=O)c1sc(=S)n(-c2ccc(Br)cc2)c1N | inconclusive: -30.5%
71 | O=c1c2cc(NC(=S)N3CCC(N4CCCCC4)CC3)ccc2nc2n1CCCCC2 | inactive: 2.95%
72 | C=C(C)CSc1nc2c(c(=O)[nH]c(=O)n2C)n1Cc1ccccc1 | inconclusive: -39.7%
73 | CC1=C(C(=O)OCc2ccccc2)C(/C=C/c2ccccc2)NC(=S)N1 (centres undefined) | inconclusive: -32.3%
74 | CC(CCc1ccc(O)cc1)NCCC(c1ccccc1)c1ccccc1 (centres undefined) | inconclusive: -32.5%
75 | O=C(COC(=O)Cc1n[nH]c(=O)c2ccccc12)NNC(=O)c1ccc(Cl)cc1 | active: -131%
76 | O=C(NCCN1CCN(Cc2ccccc2Cl)CC1)Nc1ccccc1 | inconclusive: -41.3%
77 | COc1ccccc1NC(=O)CN(c1ccc(C23CC4CC(CC(C4)C2)C3)cc1)S(C)(=O)=O | inactive: -9.92%
78 | Cc1ccccc1OC1(C)CCN(Cc2ccc(-c3ccccn3)cc2)C1 (centres undefined) | active: -75.4%
79 | CC(C)(C)NC(=O)C(c1ccc(-c2ccccc2)cc1)n1c(=O)c(-c2ccccc2)nc2ccccc21 (centres undefined) | inactive: 17%
80 | O=C(CN1C(=O)C2C3C=CC(C3)C2C1=O)OCC(=O)c1ccc(Cl)c([N+](=O)[O-])c1 (centres undefined) | active: -69.5%
81 | Cc1ccc(C2/C(=C(/O)c3ccc(Br)cc3)C(=O)C(=O)N2Cc2ccco2)o1 (centres undefined) | inconclusive: -34.7%
82 | O=C(c1cccs1)N1CCN(CCCc2ccccc2)CC1 | active: -65.4%
83 | CN(C(=O)c1cccc(NC(=O)Cc2ccc(NC(=O)C3CCCN(C(=O)C4CCCC4)C3)cc2)c1)C1CCCCC1 (centres undefined) | inactive: 9.62%
84 | O=[N+]([O-])c1ccc(C=Nc2ccc(Cl)cc2Cl)s1 | inconclusive: -35.8%
85 | Cc1ccc(NS(=O)(=O)c2ccc(C(=O)NC3CCN(Cc4ccccc4)CC3)cc2)cc1 | active: -68.4%
86 | CCCCNC(=O)C1C(c2ccc(OC)cc2)=Nc2ccccc2N1C(=O)c1cccnc1 (centres undefined) | inconclusive: -37.1%
87 | Cc1c(Cl)cccc1NS(=O)(=O)c1ccccc1 | inconclusive: -32.7%
88 | COC(=O)Nc1nnc(SCc2ccc(C)cc2)s1 | inconclusive: -44.9%
89 | COCc1cc(CN2CCCC(CNC(=O)c3ccc(F)cc3)C2)ccc1OC (centres undefined) | inconclusive: -30.3%
